PubChem BioAssay AID504834 (National Center for Advancing Translational Sciences (NCATS), 2011)
In all, about 320,000 compounds went through this assay and about 22,000 (6.9%) were called active. This list was built around the results that the source calls inconclusive (neither active nor inactive); the mix of calls is not that of the screen. Calls come from the whole dose curve; as a rule, active = well fitted inhibition curve with a large enough effect; inconclusive = small, poorly fitted or top-dose-only effect, or another doubt; inactive = no such curve, though single readings can be large or run the other way. Where the call is inconclusive, the potency comes from a doubtful curve fit.

Experiment: Primary qHTS for delayed death inhibitors of the malarial parasite plastid, 96 hour incubation
Settings: P. falciparum luciferase reporter growth; series mostly up to 28.7 µM
Outline: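 Delayed-death screen, second-generation endpoint: infected erythrocytes, 2% hematocrit, 0.05% parasitemia final; 96 hours at 37 C, 5% CO2; luciferase detection reagent; luminescence decrease equals reduced growth.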
Potency is the fitted concentration of half-maximal effect.

Compound	Potency
O=c1[nH]ncn1-c1ccc(Br)cc1	inconclusive: 18.5 µM [inhibitor, single point]
O=C(NCc1ccco1)C1CC(c2c(Cl)cccc2Cl)=NO1 (configuration not stated)	inconclusive: 0.0928 µM [inhibitor, full curve, poor fit]
O=c1cc(Cl)[nH]n(-c2ccccc2)c1=O	inconclusive: 0.104 µM [inhibitor, full curve, poor fit]
O=c1[nH]c(/C(Cl)=C/c2cc(Cl)ccc2O)nc2cc(Cl)ccc12	active: 9.28 µM
Oc1ccc(Cl)cc1C(C#Cc1ccccc1)N1CCOCC1 (configuration not stated)	active: 10.4 µM
COc1cccc(NC(=O)[C@H](C)NC(=O)N2CCn3c2nc2ccccc23)c1	inconclusive: 20.8 µM [inhibitor, single point]
O=C(Cc1ccccc1)N/N=C/c1cccn1-c1ccc([N+](=O)[O-])cc1	inconclusive: 0.522 µM [inhibitor, full curve, poor fit]
CCC(CC)c1nnc(NC(=O)C2CCN(C(=O)c3ccco3)CC2)s1	inactive
CN(C(=O)c1ccc2c(c1)CCN2S(C)(=O)=O)c1ccccc1	inconclusive: 18.5 µM [inhibitor, partial curve, poor fit]
COc1ccccc1N1CC(C(=O)NCCN2C(=O)S/C(=C\c3cccnc3)C2=O)CC1=O (configuration not stated)	inconclusive: 0.522 µM [inhibitor, full curve, poor fit]
COc1ccc(-c2nc(CC(=O)Nc3cccc(S(=O)(=O)NC4=NCCC4)c3)cs2)cc1	inconclusive: 18.5 µM [inhibitor, single point]
Cc1ccc(NC(=O)CCc2ccc(C)o2)c(C)c1	inactive
CCOc1ccc(CCNC(=O)COC(=O)c2nn(C)c(=O)c3ccccc23)cc1OCC	inactive
Cc1ccc(Cn2nnnc2CN2CCC(c3nc4ccc(Cl)cc4[nH]3)CC2)cc1	inconclusive: 3.7 µM [inhibitor, partial curve]
COc1ccc(/C=C(\C#N)C(=O)Nc2ccc3[nH]c(=O)[nH]c3c2)cc1	inconclusive: 18.5 µM [inhibitor, single point]
Cc1ccc(NC(=O)CN2C(=O)C3C4C=CC(C4)C3C2=O)cc1S(=O)(=O)N(C)C (configuration not stated)	inactive
Cc1cc(Br)ccc1OCCCCNC(C)(C)C	inconclusive: 18.5 µM [inhibitor, single point]
O=C(CCN1C(=O)/C(=C\c2ccccc2)SC1=S)NNC(=O)c1cccnc1	inactive
N/C(Cc1ccc([N+](=O)[O-])cc1)=N\OC(=O)c1ccc2ccccc2c1	inactive
CC(=O)CSc1nnc(CSc2ncccn2)n1C1CCCCC1	inconclusive: 2.08 µM [inhibitor, full curve, poor fit]
CCOC(=O)C1CCN(C(=O)COc2cccc3ccccc23)CC1	inconclusive: 0.0093 µM [inhibitor, full curve, poor fit]
COc1cccc(C(=O)Nc2cnn(C(C)C)c2)c1	inactive
Cn1nnc(NC(=S)NC(=O)Cc2ccccc2)n1	active: 2.08 µM
COc1ccc(C(=O)CSc2nnc(CNc3ccc(C)cc3C)n2Cc2ccco2)cc1	inconclusive: 18.5 µM [inhibitor, single point]

Compound	Potency
Cc1ccc(/C=N\NC(=O)COc2ccc(C)cc2[N+](=O)[O-])cc1	inconclusive: 11.7 µM [inhibitor, single point]
Cc1cc(C)n(CC(=O)n2c(C)c(C)c3ccccc32)n1	inconclusive: 7.38 µM [inhibitor, single point]
CCN(CC)C(=O)c1c(C)nc2ccccn12	inactive
Cc1ccc(S(=O)(=O)N(C)C)cc1NC(=O)c1c(-c2c(F)cccc2Cl)noc1C	inconclusive: 6.57 µM [inhibitor, partial curve]
Cc1ccc(-n2ncc3c2CC(C)(C)CC3NC(=O)CCCN2CCCCC2=O)cc1 (configuration not stated)	inconclusive: 13.1 µM [inhibitor, partial curve, poor fit]
C=CCn1c2[n+](c3ccccc3c1=O)CCCCC2	inactive
O=C(N/N=C/c1ccc(OCc2ccccc2)cc1)c1cc[n+](Cc2ccccc2)cc1	inconclusive: 10.4 µM [inhibitor, single point]
O=C(Cc1ccccc1[N+](=O)[O-])NC1CC2CCC1C2 (configuration not stated)	inconclusive: 2.94 µM [inhibitor, partial curve, poor fit]
CCC(C)c1ccc(NC(=O)c2ccco2)cc1 (configuration not stated)	inconclusive: 18.5 µM [inhibitor, single point]
NC(=O)NS(=O)(=O)c1ccc(N)cc1	inactive
CCCN(CCC)CCNS(=O)(=O)c1ccc2c(c1)oc(=O)n2C	inconclusive: 10.4 µM [inhibitor, single point]
Cc1cc(C)n2c(Nc3ccc4c(c3)OCCO4)c(-c3ccc(C)o3)nc2n1	active: 5.86 µM
O=C(N/N=C/C=C/c1ccccc1)C1CC1(c1ccccc1)c1ccccc1 (configuration not stated)	active: 10.4 µM
COC(=O)Cn1c(C)nc2c(sc3nc(C)cc(C)c32)c1=O	inactive
O=C(Nc1ccc(F)cc1)N1CCN(C(=O)C2CCCO2)CC1 (configuration not stated)	inactive
O=C(COc1ccc2oc(-c3ccco3)cc(=O)c2c1)N1CCCCC1	inconclusive: 13.1 µM [inhibitor, single point]
CS(=O)(=O)N(CC(=O)Nc1ccccc1C(=O)NCc1ccco1)c1ccccc1F	inactive
Cc1ccc(-n2cc(CN3CCN(Cc4nccn4C)CC3)c(-c3cccc(C)c3)n2)cc1	inconclusive: 7.38 µM [inhibitor, partial curve]
COC(=O)/C=C/c1ccc(-n2cncn2)cc1	inconclusive: 2.08 µM [inhibitor, single point]
O=C(Cn1nc(CNc2ccc(Cl)cc2)[n+]2c1CCCCC2)c1ccc(Br)cc1	inconclusive: 0.928 µM [inhibitor, full curve, poor fit]
Cc1ccc(NC(=O)c2c(O)c3ccccc3n(C)c2=O)nc1	inactive
CCC(=O)N(CCC(c1ccco1)c1ccccc1OC)Cc1cccs1 (configuration not stated)	active: 10.4 µM
Cc1cc(C)n(C(=O)CNC(=O)CCc2ccccc2)n1	inactive
CC(C)c1ccc(N2C(=O)NC(=O)/C(=C/C=C/c3ccco3)C2=O)cc1	inactive

Some of the entries above in a different format.
Compound,Potency
CCN(CC)C(=O)c1c(C)nc2ccccn12,inactive
Cc1ccc(-n2ncc3c2CC(C)(C)CC3NC(=O)CCCN2CCCCC2=O)cc1 (configuration not stated),"inconclusive: 13.1 µM [inhibitor, partial curve, poor fit]"
COC(=O)Cn1c(C)nc2c(sc3nc(C)cc(C)c32)c1=O,inactive
O=C(COc1ccc2oc(-c3ccco3)cc(=O)c2c1)N1CCCCC1,"inconclusive: 13.1 µM [inhibitor, single point]"
COC(=O)/C=C/c1ccc(-n2cncn2)cc1,"inconclusive: 2.08 µM [inhibitor, single point]"
CCC(=O)N(CCC(c1ccco1)c1ccccc1OC)Cc1cccs1 (configuration not stated),active: 10.4 µM

(cont.)

Compound	Potency
Brc1ccc(C2=CSC3=NCCN23)cc1	inactive
COc1cc(OC)c(OC)cc1/C=N/n1c(C)nc2ccccc2c1=O	inconclusive: 18.5 µM [inhibitor, single point]
O=S(=O)(c1ccc(NC(=S)N/N=C/c2ccc(O)c(O)c2)cc1)N1CCOCC1	active: 13.1 µM
CO/N=C/C(NC(=O)c1ccc(C(F)(F)F)cc1)C(=O)OC (configuration not stated)	inconclusive: 0.0083 µM [inhibitor, full curve, poor fit]
CCCCC(=O)Nc1nnc(SCC(=O)NCC2CCCO2)s1 (configuration not stated)	inactive
CC1(C)NC(=O)N(CCSc2ccc(Cl)cc2)C1=O	inconclusive: 18.5 µM [inhibitor, single point]
COc1cc(NC(=S)Nc2ccccn2)cc(OC)c1	inactive
O=C(CN1CCC(n2nnc3cc(C(F)(F)F)ccc32)CC1)NNC(=O)c1ccco1	inconclusive: 2.94 µM [inhibitor, partial curve, poor fit]
O=C(/C(N=Nc1cccc(C(F)(F)F)c1)=C(/O)c1cccs1)C(F)(F)F	active: 5.22 µM
CSc1ccccc1OCc1cc(C(=O)NCc2cccc(C)n2)no1	active: 4.15 µM
O=C(Nc1ccc2c(c1)C(=O)N(CC1CCCO1)C2=O)c1cccc(Br)c1 (configuration not stated)	inactive
O=C(NCc1nnc(SCc2ccc(F)cc2)n1-c1ccccc1)C12CC3CC(CC(C3)C1)C2	inconclusive: 11.7 µM [inhibitor, partial curve, poor fit]
Cc1cccc(Nc2nc(C)nc3c2oc2ccccc23)c1	inconclusive: 14.7 µM [inhibitor, partial curve, poor fit]
Cc1noc(C)c1COc1cccc(C(=O)Nc2cccnc2)c1	inconclusive: 18.5 µM [inhibitor, partial curve, poor fit]
O=C(/C=C/c1ccc2ccccc2n1)N1CCN(S(=O)(=O)c2ccccc2F)CC1	inconclusive: 4.15 µM [inhibitor, partial curve, poor fit]
COc1cc(Cc2cc(N)nc(N)n2)cc(OC)c1OC	inconclusive: 2.62 µM [inhibitor, full curve, poor fit]
O=C(N/N=C/c1ccc(-c2cccc([N+](=O)[O-])c2)o1)c1cccs1	inconclusive: 13.1 µM [inhibitor, single point]
C(=N\Nc1ncnc2sc3c(c12)CCC3)/c1ccncc1	inactive
COc1ccc(OC)c(NC(=O)COC(=O)c2ccc(OC)c(S(=O)(=O)N3CCOCC3)c2)c1	inconclusive: 18.5 µM [inhibitor, single point]
O=C(NCc1cccnc1)C1CCN(S(=O)(=O)c2cc(Cl)ccc2Cl)CC1	inconclusive: 0.208 µM [inhibitor, full curve, poor fit]
CCN(CC)CCN1C(=O)C(O)=C(C(C)=O)C1c1ccc(OC)c(OC)c1 (configuration not stated)	inconclusive: 0.0657 µM [inhibitor, full curve, poor fit]
NC(=O)c1ccsc1NC(=O)COC(=O)Cc1ccccc1	inconclusive: 18.5 µM [inhibitor, single point]
C/C(=N\NC(=O)c1ccc(CN2CCOCC2)cc1)c1ccc([N+](=O)[O-])cc1	inactive
CCCCn1nc(C(=O)N(C)C2CCCCC2)c2ccccc2c1=O	inconclusive: 20.8 µM [inhibitor, partial curve, poor fit]
